Results deposited as PubChem BioAssay AID1259424 (University of Nebraska Medical Center, 2018)
The whole screen tested about 14,000 reagents; shown is an unselected part. 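Higher correlation or smaller distance means closer resemblance to KSR1 loss; control wells, including KSR1 knockdowns, recur on many plates.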 Some reagents were tested in more than one well and are listed for each. Not stated in the record: the time to read-out.

Purpose: 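Find knockdowns that reproduce the expression shifts seen after KSR1 loss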 (primary screen)
Cell system: human HCT116 colon cancer cells
Reagents: siRNA pool against human genes, 50 nM
Measured: 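Six signature mRNAs by branched-DNA multiplex assay, scaled to two housekeeping genes and non-targeting median, log2; matched to mean KSR1 knockdown profile by Pearson correlation and euclidean distance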
Reading the numbers: mean correlation with KSR1 profile and KSR1 correlation: higher = expression change more like KSR1 knockdown; mean distance from KSR1 profile: higher = expression change less like KSR1 knockdown

| gene knocked down | mean correlation with KSR1 profile | mean distance from KSR1 profile | KSR1 correlation, replicate 1 | KSR1 correlation, replicate 2 | KSR1 correlation, replicate 3 |
| --- | --- | --- | --- | --- | --- |
| GRID1 (glutamate ionotropic receptor delta type subunit 1) | 0.0399 | 3.16 | -0.098 | 0.0297 | -0.0879 |
| PCSK1 (proprotein convertase subtilisin/kexin type 1) | 0.277 | 3.38 | 0.231 | 0.361 | 0.246 |
| PDLIM3 (PDZ and LIM domain 3) | -0.781 | 1.68 | -0.684 | -0.687 | -0.841 |
| PDLIM3 (PDZ and LIM domain 3) | 0.0201 | 2.01 | -0.0823 | 0.277 | -0.0822 |
| RSU1 (Ras suppressor protein 1) | -0.0242 | 1.85 | 0.355 | -0.561 | 0.144 |
| C1QL1 (complement C1q like 1) | 0.449 | 2.01 | 0.587 | 0.335 | 0.433 |
| ST6GALNAC5 (ST6 N-acetylgalactosaminide alpha-2,6-sialyltransferase 5) | 0.246 | 1.64 | 0.0404 | 0.0788 | 0.301 |
| CST2 (cystatin SA) | -0.472 | 2.06 | -0.295 | -0.385 | -0.539 |
| ZSCAN31 (zinc finger and SCAN domain containing 31) | -0.308 | 1.22 | -0.367 | -0.739 | -0.265 |
| DENND1C (DENN domain containing 1C) | -0.00569 | 2.56 | 0.104 | 0.147 | -0.18 |
| CAMK1 (calcium/calmodulin dependent protein kinase I) | -0.514 | 3.73 | -0.494 | -0.128 | -0.694 |
| G6PC1 (glucose-6-phosphatase catalytic subunit 1) | -0.29 | 2.9 | 0.000427 | -0.00142 | -0.452 |
| WDR91 (WD repeat domain 91) | -0.579 | 3.88 | -0.45 | -0.507 | -0.759 |
| AARS1 (alanyl-tRNA synthetase 1) | 0.873 | 2.43 | 0.867 | 0.878 | 0.872 |
| ZNF557 (zinc finger protein 557) | 0.83 | 1.08 | 0.854 | 0.837 | 0.82 |
| PRSS21 (serine protease 21) | 0.243 | 3.9 | 0.473 | 0.101 | 0.206 |
| SPP1 (secreted phosphoprotein 1) | 0.0828 | 2.43 | 0.316 | 0.0082 | -0.0394 |

A run of entries from the list above, for reference:
| gene knocked down | mean correlation with KSR1 profile | mean distance from KSR1 profile | KSR1 correlation, replicate 1 | KSR1 correlation, replicate 2 | KSR1 correlation, replicate 3 |
| --- | --- | --- | --- | --- | --- |
| G6PC1 (glucose-6-phosphatase catalytic subunit 1) | -0.29 | 2.9 | 0.000427 | -0.00142 | -0.452 |
| WDR91 (WD repeat domain 91) | -0.579 | 3.88 | -0.45 | -0.507 | -0.759 |

Continued:
| gene knocked down | mean correlation with KSR1 profile | mean distance from KSR1 profile | KSR1 correlation, replicate 1 | KSR1 correlation, replicate 2 | KSR1 correlation, replicate 3 |
| --- | --- | --- | --- | --- | --- |
| IRS2 (insulin receptor substrate 2) | 0.0423 | 1.13 | 0.15 | -0.183 | 0.0968 |
| NAGA (alpha-N-acetylgalactosaminidase) | -0.417 | 2.76 | -0.787 | -0.706 | -0.194 |
| DMRT3 (doublesex and mab-3 related transcription factor 3) | -0.89 | 3.35 | -0.726 | -0.889 | -0.973 |
| DOK5 (docking protein 5) | -0.146 | 1.96 | -0.289 | 0.0363 | -0.21 |
| RTKN (rhotekin) | -0.414 | 1.61 | -0.533 | -0.294 | -0.185 |
| RACGAP1 (Rac GTPase activating protein 1) | -0.166 | 1.93 | -0.375 | -0.4 | -0.257 |
| TUBB2A (tubulin beta 2A class IIa) | -0.0183 | 2.21 | -0.19 | -0.00736 | 0.359 |
| ZNF702P (zinc finger protein 702, pseudogene) | 0.842 | 0.853 | 0.852 | 0.885 | 0.702 |
| MC4R (melanocortin 4 receptor) | 0.536 | 2.53 | 0.575 | 0.607 | 0.629 |
| SCN2A (sodium voltage-gated channel alpha subunit 2) | -0.242 | 2.31 | -0.222 | -0.455 | -0.131 |
| MTSS1 (MTSS I-BAR domain containing 1) | -0.471 | 1.98 | -0.364 | -0.433 | -0.347 |
| MORF4L1 (mortality factor 4 like 1) | 0.228 | 3.13 | 0.496 | 0.117 | 0.298 |
| C1orf94 (chromosome 1 open reading frame 94) | 0.636 | 4.75 | 0.654 | 0.484 | 0.455 |
| HHIPL1 (HHIP like 1) | 0.432 | 4.65 | 0.37 | 0.511 | 0.288 |
| CACNA1D (calcium voltage-gated channel subunit alpha1 D) | 0.196 | 2.02 | -0.00283 | 0.365 | 0.271 |
| MGC40069 (retired record) | -0.187 | 6.13 | -0.183 | -0.211 | -0.302 |
| SARAF (store-operated calcium entry associated regulatory factor) | 0.085 | 2.09 | -0.0286 | 0.0763 | -0.0921 |
